Sequences of proteins named here, by UniProt entry; tags and fusion partners are left off. A change or cut given only in a name is not applied to a line headed by its entry.
UniProt Q7KZI7: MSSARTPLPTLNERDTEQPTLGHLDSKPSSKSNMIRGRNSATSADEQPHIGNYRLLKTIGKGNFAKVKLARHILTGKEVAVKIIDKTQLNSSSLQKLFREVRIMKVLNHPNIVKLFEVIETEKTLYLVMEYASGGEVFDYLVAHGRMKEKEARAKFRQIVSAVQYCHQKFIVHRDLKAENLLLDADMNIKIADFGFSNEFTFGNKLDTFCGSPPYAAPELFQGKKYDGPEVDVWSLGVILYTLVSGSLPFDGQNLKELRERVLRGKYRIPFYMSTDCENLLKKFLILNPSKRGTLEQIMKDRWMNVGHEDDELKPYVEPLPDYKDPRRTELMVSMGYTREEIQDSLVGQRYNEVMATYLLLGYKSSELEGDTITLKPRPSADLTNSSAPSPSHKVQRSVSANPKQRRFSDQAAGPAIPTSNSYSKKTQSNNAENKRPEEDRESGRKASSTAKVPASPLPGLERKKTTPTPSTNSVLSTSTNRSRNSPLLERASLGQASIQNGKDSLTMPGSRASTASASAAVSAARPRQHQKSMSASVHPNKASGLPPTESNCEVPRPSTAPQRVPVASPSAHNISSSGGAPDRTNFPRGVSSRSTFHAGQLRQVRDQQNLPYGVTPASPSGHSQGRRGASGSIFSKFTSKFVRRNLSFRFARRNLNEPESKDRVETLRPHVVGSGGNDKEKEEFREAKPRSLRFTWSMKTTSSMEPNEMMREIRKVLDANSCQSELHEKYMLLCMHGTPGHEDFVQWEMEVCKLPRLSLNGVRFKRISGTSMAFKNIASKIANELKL
UniProt Q14680: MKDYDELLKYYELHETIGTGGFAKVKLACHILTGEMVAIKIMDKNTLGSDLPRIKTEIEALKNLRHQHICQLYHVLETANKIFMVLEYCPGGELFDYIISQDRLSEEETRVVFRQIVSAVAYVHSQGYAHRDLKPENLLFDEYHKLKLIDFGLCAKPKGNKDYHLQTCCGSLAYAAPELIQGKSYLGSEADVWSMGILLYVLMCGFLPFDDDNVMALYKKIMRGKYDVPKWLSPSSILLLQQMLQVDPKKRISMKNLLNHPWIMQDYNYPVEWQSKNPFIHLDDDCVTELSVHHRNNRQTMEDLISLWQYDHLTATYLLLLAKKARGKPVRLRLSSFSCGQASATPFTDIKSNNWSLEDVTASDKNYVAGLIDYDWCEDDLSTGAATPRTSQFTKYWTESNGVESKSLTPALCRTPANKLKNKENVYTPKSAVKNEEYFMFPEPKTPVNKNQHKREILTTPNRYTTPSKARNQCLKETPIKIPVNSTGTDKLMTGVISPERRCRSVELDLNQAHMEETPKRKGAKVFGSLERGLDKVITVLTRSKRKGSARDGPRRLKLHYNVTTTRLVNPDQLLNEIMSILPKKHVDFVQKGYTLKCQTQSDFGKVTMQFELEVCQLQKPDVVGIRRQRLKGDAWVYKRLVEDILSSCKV
UniProt Q9H4B4: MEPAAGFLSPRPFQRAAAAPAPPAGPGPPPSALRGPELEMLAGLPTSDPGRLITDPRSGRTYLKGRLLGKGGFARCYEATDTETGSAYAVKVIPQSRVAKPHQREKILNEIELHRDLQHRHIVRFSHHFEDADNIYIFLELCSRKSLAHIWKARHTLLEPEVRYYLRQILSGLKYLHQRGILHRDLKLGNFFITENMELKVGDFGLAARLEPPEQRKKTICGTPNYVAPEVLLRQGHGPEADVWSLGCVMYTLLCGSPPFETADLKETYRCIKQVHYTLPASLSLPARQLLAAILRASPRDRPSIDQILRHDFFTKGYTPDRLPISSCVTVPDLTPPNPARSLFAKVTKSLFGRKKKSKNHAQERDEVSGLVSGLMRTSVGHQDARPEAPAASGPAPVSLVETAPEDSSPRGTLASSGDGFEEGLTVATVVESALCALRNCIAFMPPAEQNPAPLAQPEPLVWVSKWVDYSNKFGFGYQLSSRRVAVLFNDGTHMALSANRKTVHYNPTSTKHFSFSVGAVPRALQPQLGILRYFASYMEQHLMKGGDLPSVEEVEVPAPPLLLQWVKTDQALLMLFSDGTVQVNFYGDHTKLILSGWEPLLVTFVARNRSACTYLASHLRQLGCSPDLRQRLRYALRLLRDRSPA
UniProt P49674: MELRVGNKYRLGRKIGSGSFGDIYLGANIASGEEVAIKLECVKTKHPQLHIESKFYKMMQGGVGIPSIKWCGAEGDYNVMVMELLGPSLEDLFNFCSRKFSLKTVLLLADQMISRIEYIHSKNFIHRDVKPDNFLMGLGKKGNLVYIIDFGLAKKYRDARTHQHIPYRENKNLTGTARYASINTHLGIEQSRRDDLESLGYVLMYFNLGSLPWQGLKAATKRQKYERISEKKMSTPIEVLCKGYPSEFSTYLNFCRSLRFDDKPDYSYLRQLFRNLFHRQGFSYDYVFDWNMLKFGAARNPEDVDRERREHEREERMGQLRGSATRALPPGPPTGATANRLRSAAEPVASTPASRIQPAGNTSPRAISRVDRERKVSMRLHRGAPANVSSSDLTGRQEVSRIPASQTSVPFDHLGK
UniProt P41240: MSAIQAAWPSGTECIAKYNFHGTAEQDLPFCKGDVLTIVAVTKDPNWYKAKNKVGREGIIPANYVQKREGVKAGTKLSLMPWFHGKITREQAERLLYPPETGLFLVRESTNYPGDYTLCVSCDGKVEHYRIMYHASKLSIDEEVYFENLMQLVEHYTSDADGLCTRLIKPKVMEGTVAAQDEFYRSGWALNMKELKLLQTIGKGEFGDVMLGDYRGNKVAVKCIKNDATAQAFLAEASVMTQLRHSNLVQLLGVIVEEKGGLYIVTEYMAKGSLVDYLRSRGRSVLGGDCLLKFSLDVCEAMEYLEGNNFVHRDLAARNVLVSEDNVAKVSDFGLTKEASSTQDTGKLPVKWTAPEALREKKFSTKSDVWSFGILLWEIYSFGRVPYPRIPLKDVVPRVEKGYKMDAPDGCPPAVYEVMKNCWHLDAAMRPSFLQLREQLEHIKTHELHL
UniProt Q15746, whole entry: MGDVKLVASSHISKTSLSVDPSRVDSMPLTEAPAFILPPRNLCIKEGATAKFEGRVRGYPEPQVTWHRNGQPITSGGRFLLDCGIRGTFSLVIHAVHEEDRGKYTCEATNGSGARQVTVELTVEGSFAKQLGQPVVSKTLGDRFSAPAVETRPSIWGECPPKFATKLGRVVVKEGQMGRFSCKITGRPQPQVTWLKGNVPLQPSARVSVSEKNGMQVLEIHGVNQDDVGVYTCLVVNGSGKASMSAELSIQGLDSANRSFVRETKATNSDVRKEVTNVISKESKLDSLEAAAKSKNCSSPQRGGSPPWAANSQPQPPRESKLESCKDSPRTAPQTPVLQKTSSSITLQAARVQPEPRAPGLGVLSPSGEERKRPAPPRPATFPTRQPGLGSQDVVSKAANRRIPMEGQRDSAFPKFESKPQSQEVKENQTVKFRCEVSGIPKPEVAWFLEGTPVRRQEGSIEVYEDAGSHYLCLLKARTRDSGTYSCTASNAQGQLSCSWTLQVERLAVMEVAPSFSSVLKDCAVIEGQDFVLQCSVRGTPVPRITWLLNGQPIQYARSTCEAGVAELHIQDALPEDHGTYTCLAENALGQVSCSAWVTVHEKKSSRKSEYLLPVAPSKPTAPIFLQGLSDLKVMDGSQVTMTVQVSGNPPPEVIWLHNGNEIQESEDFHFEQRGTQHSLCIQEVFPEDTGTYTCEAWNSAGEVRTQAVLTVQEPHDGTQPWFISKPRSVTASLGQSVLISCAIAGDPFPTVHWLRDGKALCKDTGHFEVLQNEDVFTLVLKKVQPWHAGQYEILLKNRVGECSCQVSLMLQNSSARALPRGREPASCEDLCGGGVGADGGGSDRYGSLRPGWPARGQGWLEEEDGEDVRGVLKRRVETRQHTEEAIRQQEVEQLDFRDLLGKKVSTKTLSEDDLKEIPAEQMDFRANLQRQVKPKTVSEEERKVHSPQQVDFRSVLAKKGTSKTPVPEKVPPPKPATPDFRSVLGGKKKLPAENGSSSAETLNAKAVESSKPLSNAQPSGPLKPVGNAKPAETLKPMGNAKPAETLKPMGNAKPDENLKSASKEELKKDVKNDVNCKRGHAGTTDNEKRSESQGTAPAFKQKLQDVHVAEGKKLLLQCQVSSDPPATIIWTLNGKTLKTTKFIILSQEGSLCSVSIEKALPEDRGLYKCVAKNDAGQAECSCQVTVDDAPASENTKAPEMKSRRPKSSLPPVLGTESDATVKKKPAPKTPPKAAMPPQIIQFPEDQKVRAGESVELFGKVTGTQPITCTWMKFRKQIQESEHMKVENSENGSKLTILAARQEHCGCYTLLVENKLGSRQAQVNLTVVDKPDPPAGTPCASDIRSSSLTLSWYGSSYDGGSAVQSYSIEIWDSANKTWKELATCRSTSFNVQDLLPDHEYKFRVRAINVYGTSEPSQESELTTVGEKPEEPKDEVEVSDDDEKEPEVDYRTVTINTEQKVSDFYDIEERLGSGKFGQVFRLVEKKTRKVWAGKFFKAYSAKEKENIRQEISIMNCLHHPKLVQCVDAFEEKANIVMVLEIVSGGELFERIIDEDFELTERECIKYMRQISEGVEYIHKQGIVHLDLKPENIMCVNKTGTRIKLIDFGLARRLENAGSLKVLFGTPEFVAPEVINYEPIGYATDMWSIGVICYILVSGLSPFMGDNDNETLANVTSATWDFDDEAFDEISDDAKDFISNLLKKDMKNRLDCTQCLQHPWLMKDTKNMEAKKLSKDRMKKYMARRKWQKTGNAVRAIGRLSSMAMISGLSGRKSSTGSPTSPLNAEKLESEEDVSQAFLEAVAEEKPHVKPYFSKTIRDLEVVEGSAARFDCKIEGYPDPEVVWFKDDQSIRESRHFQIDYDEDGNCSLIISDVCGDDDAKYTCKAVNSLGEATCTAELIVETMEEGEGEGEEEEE
UniProt O00444: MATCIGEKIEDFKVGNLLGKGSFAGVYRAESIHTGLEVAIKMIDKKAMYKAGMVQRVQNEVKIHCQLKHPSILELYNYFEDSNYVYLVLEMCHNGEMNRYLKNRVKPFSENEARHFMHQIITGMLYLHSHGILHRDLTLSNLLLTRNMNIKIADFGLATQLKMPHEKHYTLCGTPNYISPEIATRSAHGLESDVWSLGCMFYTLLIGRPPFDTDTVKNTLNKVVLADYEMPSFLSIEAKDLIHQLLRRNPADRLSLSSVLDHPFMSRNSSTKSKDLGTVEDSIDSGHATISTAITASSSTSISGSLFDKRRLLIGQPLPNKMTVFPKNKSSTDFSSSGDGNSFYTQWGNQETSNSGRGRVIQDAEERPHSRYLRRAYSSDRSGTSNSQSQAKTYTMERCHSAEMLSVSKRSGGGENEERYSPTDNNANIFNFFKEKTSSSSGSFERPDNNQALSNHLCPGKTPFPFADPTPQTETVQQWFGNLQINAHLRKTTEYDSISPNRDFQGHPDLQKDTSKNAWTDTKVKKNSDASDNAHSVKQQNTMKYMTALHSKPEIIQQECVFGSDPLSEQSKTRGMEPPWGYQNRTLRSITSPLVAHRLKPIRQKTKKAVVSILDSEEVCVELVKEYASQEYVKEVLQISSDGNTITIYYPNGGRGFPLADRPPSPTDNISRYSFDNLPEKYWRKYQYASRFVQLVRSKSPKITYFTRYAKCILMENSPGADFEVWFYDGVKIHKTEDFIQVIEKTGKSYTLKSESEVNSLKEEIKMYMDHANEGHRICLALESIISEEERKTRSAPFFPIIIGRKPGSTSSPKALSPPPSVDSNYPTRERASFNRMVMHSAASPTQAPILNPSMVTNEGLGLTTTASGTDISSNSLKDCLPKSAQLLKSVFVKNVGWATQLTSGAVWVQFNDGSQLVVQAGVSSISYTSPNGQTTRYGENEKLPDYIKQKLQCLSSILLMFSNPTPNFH
UniProt Q9UK32, whole entry: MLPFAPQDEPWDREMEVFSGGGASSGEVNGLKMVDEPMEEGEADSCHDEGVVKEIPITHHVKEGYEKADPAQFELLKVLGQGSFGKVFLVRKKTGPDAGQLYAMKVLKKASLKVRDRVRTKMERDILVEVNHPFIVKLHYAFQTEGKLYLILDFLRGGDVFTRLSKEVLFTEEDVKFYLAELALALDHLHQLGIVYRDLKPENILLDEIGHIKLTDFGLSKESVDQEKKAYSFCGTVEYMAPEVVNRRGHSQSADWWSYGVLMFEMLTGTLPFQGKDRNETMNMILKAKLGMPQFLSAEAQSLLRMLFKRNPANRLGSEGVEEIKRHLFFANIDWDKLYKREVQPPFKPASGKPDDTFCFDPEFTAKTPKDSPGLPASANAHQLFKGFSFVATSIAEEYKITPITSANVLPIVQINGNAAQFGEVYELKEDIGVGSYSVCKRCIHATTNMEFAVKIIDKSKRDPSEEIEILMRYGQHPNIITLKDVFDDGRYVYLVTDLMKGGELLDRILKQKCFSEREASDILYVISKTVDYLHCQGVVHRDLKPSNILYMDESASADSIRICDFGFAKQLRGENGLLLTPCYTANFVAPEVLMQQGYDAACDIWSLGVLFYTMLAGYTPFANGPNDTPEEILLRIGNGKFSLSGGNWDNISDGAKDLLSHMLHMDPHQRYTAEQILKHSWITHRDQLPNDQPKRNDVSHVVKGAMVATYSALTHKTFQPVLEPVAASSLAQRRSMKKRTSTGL

According to article PMC8213057, “Targeting ALK2: An Open Science Approach to Developing Therapeutics for the Treatment of Diffuse Intrinsic Pontine Glioma” (Journal of Medicinal Chemistry, 2020):

Assays:
CDK9/cyclin K = target: T1, CDK9/cyclin K (Homo sapiens, UniProt P50750); experiment: 375-member kinase panel; format: biochemical; conditions: Run 1, Run 2
T1 construct: purchased Reaction Biology Corporation
Description: […]. To further investigate the off-target activity of these analogues, we profiled them in a 375-member kinase panel. […] […]. […] […].

AXL = AXL (Homo sapiens, UniProt P30530); conditions: 1 μM; Run 1, Run 2
CLK1 = CLK1 (Homo sapiens, UniProt P49759); conditions: 1 μM; Run 1, Run 2
EGFR = EGFR (Homo sapiens, UniProt P00533); conditions: 1 μM; Run 1, Run 2
EPHA8 = EPHA8 (Homo sapiens, UniProt P29322); conditions: 1 μM; Run 1, Run 2
GLK/MAP4K3 = GLK/MAP4K3 (Homo sapiens, UniProt Q8IVH8); conditions: 1 μM; Run 1, Run 2
KDR/VEGFR2 = KDR/VEGFR2 (Homo sapiens, UniProt P35968); conditions: 1 μM; Run 1, Run 2
KSR2 = KSR2 (Homo sapiens, UniProt Q6VAB6); conditions: 1 μM; Run 1, Run 2
MARK1 = MARK1 (Homo sapiens, UniProt Q9P0L2); conditions: 1 μM; Run 1, Run 2
MARK2/PAR-1Ba = MARK2/PAR-1Ba (Homo sapiens, UniProt Q7KZI7); conditions: 1 μM; Run 1, Run 2
MELK = MELK (Homo sapiens, UniProt Q14680); conditions: 1 μM; Run 1, Run 2
MLK3/MAP3K11 = MLK3/MAP3K11 (Homo sapiens, UniProt Q16584); conditions: 1 μM; Run 1, Run 2
MST4 = MST4 (Homo sapiens, UniProt Q9P289); conditions: 1 μM; Run 1, Run 2
MYLK4 = MYLK4 (Homo sapiens, UniProt Q86YV6); conditions: 1 μM; Run 1, Run 2
PAK6 = PAK6 (Homo sapiens, UniProt Q9NQU5); conditions: 1 μM; Run 1, Run 2
PLK1 = PLK1 (Homo sapiens, UniProt P53350); conditions: 1 μM; Run 1, Run 2
PLK3 = PLK3 (Homo sapiens, UniProt Q9H4B4); conditions: 1 μM; Run 1, Run 2
PRKX = PRKX (Homo sapiens, UniProt P51817); conditions: 1 μM; Run 1, Run 2
SRPK1 = SRPK1 (Homo sapiens, UniProt Q96SB4); conditions: 1 μM; Run 1, Run 2
STK16 = STK16 (Homo sapiens, UniProt O75716); conditions: 1 μM; Run 1, Run 2
ULK3 = ULK3 (Homo sapiens, UniProt Q6PHR2); conditions: 1 μM; Run 1, Run 2
CDK17/cyclin Y (PCTK2) = CDK17/cyclin Y (PCTK2) (Homo sapiens, UniProt Q00537); experiment: biochemical; conditions: read-out: % enzyme activity, 1 μM; Run 1, Run 2
CDK18/cyclin Y (PCTK3) = CDK18/cyclin Y (PCTK3) (Homo sapiens, UniProt Q07002); experiment: biochemical; conditions: read-out: % enzyme activity, 1 μM; Run 1, Run 2
CDK5/P25 = CDK5/P25 (Homo sapiens, UniProt Q00535); experiment: biochemical; conditions: read-out: % enzyme activity, 1 μM; Run 1, Run 2
CK1epsilon = CK1epsilon (Homo sapiens, UniProt P49674); experiment: biochemical; conditions: read-out: % enzyme activity, 1 μM; Run 1, Run 2
COT1/MAP3K8 = COT1/MAP3K8 (Homo sapiens, UniProt P41279); experiment: biochemical; conditions: read-out: % enzyme activity, 1 μM; Run 1, Run 2
CSK = CSK (Homo sapiens, UniProt P41240); experiment: biochemical; conditions: read-out: % enzyme activity, 1 μM; Run 1, Run 2
CTK/MATK = CTK/MATK (Homo sapiens, UniProt P42679); experiment: biochemical; conditions: read-out: % enzyme activity, 1 μM; Run 1, Run 2
DCAMKL1 = DCAMKL1 (Homo sapiens, UniProt O15075); experiment: biochemical; conditions: read-out: % enzyme activity, 1 μM; Run 1, Run 2
FGFR4 = FGFR4 (Homo sapiens, UniProt P22455); experiment: biochemical; conditions: read-out: % enzyme activity, 1 μM; Run 1, Run 2
IRR/INSRR = IRR/INSRR (Homo sapiens, UniProt P14616); experiment: biochemical; conditions: read-out: % enzyme activity, 1 μM; Run 1, Run 2
JAK2 = JAK2 (Homo sapiens, UniProt O60674); experiment: biochemical; conditions: read-out: % enzyme activity, 1 μM; Run 1, Run 2
MKK6 = MKK6 (Homo sapiens, UniProt P52564); experiment: biochemical; conditions: read-out: % enzyme activity, 1 μM; Run 1, Run 2
MLCK/MYLK = MLCK/MYLK (Homo sapiens, UniProt Q15746); experiment: biochemical; conditions: read-out: % enzyme activity, 1 μM; Run 1, Run 2
MST2/STK3 = MST2/STK3 (Homo sapiens, UniProt Q13188); experiment: biochemical; conditions: read-out: % enzyme activity, 1 μM; Run 1, Run 2
MYLK3 = MYLK3 (Homo sapiens, UniProt Q32MK0); experiment: biochemical; conditions: read-out: % enzyme activity, 1 μM; Run 1, Run 2
PIM1 = PIM1 (Homo sapiens, UniProt P11309); experiment: biochemical; conditions: read-out: % enzyme activity, 1 μM; Run 1, Run 2
PLK4/SAK = PLK4/SAK (Homo sapiens, UniProt O00444); experiment: biochemical; conditions: read-out: % enzyme activity, 1 μM; Run 1, Run 2
RIPK3 = RIPK3 (Homo sapiens, UniProt Q9Y572); experiment: biochemical; conditions: read-out: % enzyme activity, 1 μM; Run 1, Run 2
RSK4 = RSK4 (Homo sapiens, UniProt Q9UK32); experiment: biochemical; conditions: read-out: % enzyme activity, 1 μM; Run 1, Run 2
TAOK2/TAO1 = TAOK2/TAO1 (Homo sapiens, UniProt Q9UL54); experiment: biochemical; conditions: read-out: % enzyme activity, 1 μM; Run 1, Run 2

`COc1cc(-c2cncc(-c3ccc(N4CCN(C(C)C)CC4)cc3)c2C)cc(F)c1C(N)=O` [Compound 26b, 2-Fluoro-4-(5-(4-(4-isopropylpiperazin-1-yl)phenyl)-4-methylpyridin-3-yl)-6-methoxybenzamide] was tested, and the “% enzyme activity” value (CDK9/cyclin K; 1 μM) was 104.69%, the remaining activity at 1 µM (CDK9/cyclin K; read-out: % enzyme activity, 1 μM) was 106% and the “% enzyme activity” value (AXL) was 81.04%. The “% enzyme activity” value (CLK1) was 92.82%, the “% enzyme activity” value (EGFR) was 101.05% and the “% enzyme activity” value (EPHA8) was 95.79%. For the same compound, the “% enzyme activity” value (GLK/MAP4K3) was 83.55%, the “% enzyme activity” value (KDR/VEGFR2) was 95.43% and the “% enzyme activity” value (KSR2) was 96.38%. For the same compound, the “% enzyme activity” value (MARK1) was 91.67%, the “% enzyme activity” value (MARK2/PAR-1Ba) was 92.98% and the “% enzyme activity” value (MELK) was 97.92%. For the same compound, the “% enzyme activity” value (MLK3/MAP3K11) was 101.95%, the “% enzyme activity” value (MST4) was 90.53% and the “% enzyme activity” value (MYLK4) was 95.46%. The “% enzyme activity” value (PAK6) was 98.70%, the “% enzyme activity” value (PLK1) was 97.79% and the “% enzyme activity” value (PLK3) was 93.88%. For the same compound, the “% enzyme activity” value (PRKX) was 96.87%, the “% enzyme activity” value (SRPK1) was 102.86% and the “% enzyme activity” value (STK16) was 99.20%. For the same compound, the “% enzyme activity” value (ULK3) was 93.28%, the remaining activity at 1 µM (CDK17/cyclin Y (PCTK2)) was 94.9% and the remaining activity at 1 µM (CDK18/cyclin Y (PCTK3)) was 102%. The remaining activity at 1 µM (CDK5/P25) was 93.6%, the remaining activity at 1 µM (CK1epsilon) was 96% and the remaining activity at 1 µM (COT1/MAP3K8) was 93.4%. For the same compound, the remaining activity at 1 µM (CSK) was 94.1%, the remaining activity at 1 µM (CTK/MATK) was 95.2% and the remaining activity at 1 µM (DCAMKL1) was 84.7%. It also gave a remaining activity at 1 µM (FGFR4) of 95.2%, a remaining activity at 1 µM (IRR/INSRR) of 124% and a remaining activity at 1 µM (JAK2) of 95.8%. For the same compound, the remaining activity at 1 µM (MKK6) was 68.5%, the remaining activity at 1 µM (MLCK/MYLK) was 106% and the remaining activity at 1 µM (MST2/STK3) was 98.3%. It also gave a remaining activity at 1 µM (MYLK3) of 103%, a remaining activity at 1 µM (PIM1) of 106% and a remaining activity at 1 µM (PLK4/SAK) of 94%. For the same compound, the remaining activity at 1 µM (RIPK3) was 112%, the remaining activity at 1 µM (RSK4) was 97.3% and the remaining activity at 1 µM (TAOK2/TAO1) was 82.3%.
